Legend:
EV-A71 Tainan/4643/98 = assay: CPE assay, EV-A71 Tainan in RD cells; type: cell-based; settings: Enterovirus A, EVA71
CVB3 = assay: CPE assay, CVB3 in Vero C1008 cells; type: cell-based, coxsackievirus B3 (CVB3); settings: Enterovirus B
CVB3 2C protein = target: T1, CVB3 2C protein (Coxsackievirus B3, UniProt P03313); assay: Thermal shift assay (differential scanning fluorimetry); type: binding; settings: CVB3 2C 4.5 μM, read-out: Tm shift
T1 construct: CVB3 Nancy 2C (amino acids 37 to 329) protein; His tag with TEV site (inferred from the pET28a(+)-TEV vector and Ni-NTA purification); made in house; host or cells: E. coli Rosetta 2(DE3)

Amino acid sequences for entries named in this document (tags omitted). Residues count along the entry.
UniProt P03313, 1137-1429: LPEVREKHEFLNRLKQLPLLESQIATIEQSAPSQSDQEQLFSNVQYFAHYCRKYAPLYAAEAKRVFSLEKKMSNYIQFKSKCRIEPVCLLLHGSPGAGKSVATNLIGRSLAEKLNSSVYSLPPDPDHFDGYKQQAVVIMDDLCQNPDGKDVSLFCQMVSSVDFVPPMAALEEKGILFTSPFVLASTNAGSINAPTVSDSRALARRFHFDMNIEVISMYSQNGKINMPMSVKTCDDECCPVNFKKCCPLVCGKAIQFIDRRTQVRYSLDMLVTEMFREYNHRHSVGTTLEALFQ

Row | SMILES | EC50 (EV-A71 Tainan/4643/98) | EC50 (CVB3) | ΔTm at 100 µM (CVB3 2C protein)
1 | CNCCC(Oc1ccc(C(F)(F)F)cc1)c1ccccc1 (stereo not drawn) [drawing 196] | > 10 µM | 2.1 µM | 
2 | CNCCC(Oc1ccc(C(F)(F)F)cc1)c1ccccc1 (stereo not drawn) [fluoxetine] |  |  | 1.31 °C

From patent publication US20210244721A1, “SMALL MOLECULE ENTEROVIRUS INHIBITORS AND USES THEREOF” (priority 2020, published 2021)
